Reference: publication PMC4691241, “Activation of ULK Kinase and Autophagy by GABARAP Trafficking from the Centrosome Is Regulated by WAC and GM130” (Molecular Cell, 2015)
Results are given in words; binding and its absence hold for the method and conditions named. Some binding calls cover weakened binding; strength is not graded here. Where a sequence is shown, tags or fusion partners need not be part of it.

By UniProt entry, the sequences of proteins in these tests, tags left out.
UniProt O95166: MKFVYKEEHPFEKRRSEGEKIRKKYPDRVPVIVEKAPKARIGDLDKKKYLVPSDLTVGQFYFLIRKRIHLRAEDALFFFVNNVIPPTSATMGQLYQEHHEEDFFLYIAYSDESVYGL

Target: GST-GABARAP, recombinant (UniProt O95166)
Experiment: pull-down; purified Strep II-GM130 incubated with recombinant WAC 320–647 before binding to recombinant GST or GST-GABARAP beads, immunoblot; both purified

B1: Strep-Tag II-GM130, purified (protein, UniProt Q08379 1-1002)
chain: MWPQPRLPPRPAMSEETRQSKLAAAKKKLREYQQRNSPGVPTGAKKKKKIKNGSNPETTTSGGCHSPEDTPKDNAATLQPSDDTVLPGGVPSPGASLTSMAASQNHDADNVPNLMDETKTFSSTESLRQLSQQLNGLVCESATCVNGEGPASSANLKDLESRYQQLAVALDSSYVTNKQLNITIEKLKQQNQEITDQLEEEKKECHQKQGALREQLQVHIQTIGILVSEKAELQTALAHTQHAARQKEGESEDLASRLQYSRRRVGELERALSAVSTQQKKADRYNKELTKERDALRLELYKNTQSNEDLKQEKSELEEKLRVLVTEKAGMQLNLEELQKKLEMTELLLQQFSSRCEAPDANQQLQQAMEERAQLEAHLGQVMESVRQLQMERDKYAENLKGESAMWRQRMQQMSEQVHTLREEKECSMSRVQELETSLAELRNQMAEPPPPEPPAGPSEVEQQLQAEAEHLRKELEGLAGQLQAQVQDNEGLSRLNREQEERLLELERAAELWGEQAEARRQILETMQNDRTTISRALSQNRELKEQLAELQSGFVKLTNENMEITSALQSEQHVKRELGKKLGELQEKLSELKETVELKSQEAQSLQQQRDQYLGHLQQYVAAYQQLTSEKEVLHNQLLLQTQLVDQLQQQEAQGKAVAEMARQELQETQERLEAATQQNQQLRAQLSLMAHPGEGDGLDREEEEDEEEEEEEAVAVPQPMPSIPEDLESREAMVAFFNSAVASAEEEQARLRGQLKEQRVRCRRLAHLLASAQKEPEAAAPAPGTGGDSVCGETHRALQGAMEKLQSRFMELMQEKADLKERVEELEHRCIQLSGETDTIGEYIALYQSQRAVLKERHREKEEYISRLAQDKEEMKVKLLELQELVLRLVGDRNEWHGRFLAAAQNPADEPTSGAPAPQELGAANQQGDLCEVSLAGSVEPAQGEAREGSPRDNPTAQQIMQLLREMQNPRERPGLGSNPCIPFFYRADENDEVKITVI
  binding: binds
